From patent publication US12552694B2, “Use of trivalent metals to enhance aquatic pesticide efficacy, surface water, and sediment quality while minimizing risk to aquatic biota” (SePRO Corporation, priority 2022, dated 2026)

Columns and labels:
[1] = Example 1: capacity of additives to bind dissolved La and Ce (ICP-OES); type: physicochemical
[2] = Example 1: preservation of P binding after additive (dissolved P colour reagent); type: physicochemical
[3] = 2 hours after La/Ce addition
[4] = dissolved Ce after additive, 0.22 μm filtered, control 10.833 mg/L
[5] = reduction in dissolved Ce vs control
[6] = reduction in dissolved La vs control
[7] = approximately 1 ppm P added to remaining sample, blue = dissolved P remains

Structure (SMILES)	% Ce reduction [1] [%]	% La reduction [1] [%]	Ce [1] [mg/L]	Ce bound [1] [mg/g]	La bound [1] [mg/g]	Total La/Ce bound [1] [mg/g]	Also binds P [2]	other results
O=C([O-])[O-].[Ca+2] [Calcium carbonate, calcium carbonate]	34	40	7.11	1.76	2.07	3.83	did display a preservation of P-binding capability and YES	
[Ca+2].[OH-].[OH-] [Calcium hydroxide, calcium hydroxide]			0.173	5.31	5.15	10.46		
c1cc[n+]2c(c1)-c1cccc[n+]1CC2 [Diquat only, diquat]								Dissolved Ce ([3]; 50 μg/L diquat): 271 µg/L; Dissolved La ([3]; 50 μg/L diquat): 175 µg/L; Total Dissolved Ce & La ([3]; 50 μg/L diquat): 446 µg/L; Dissolved Ce ([3]; 100 μg/L diquat): 305 µg/L; Dissolved La ([3]; 100 μg/L diquat): 191 µg/L; Total Dissolved Ce & La ([3]; 100 μg/L diquat): 496 µg/L; Dissolved Ce ([3]; 200 μg/L diquat): 248 µg/L; Dissolved La ([3]; 200 μg/L diquat): 166 µg/L; Total Dissolved Ce & La ([3]; 200 μg/L diquat): 414 µg/L; Dissolved Ce ([3]; 300 μg/L diquat): 385 µg/L; Dissolved La ([3]; 300 μg/L diquat): 222 µg/L; Total Dissolved Ce & La ([3]; 300 μg/L diquat): 607 µg/L
NC(=O)CC[C@H](N)C(=O)O [Glutamine, glutamine]								Ce [1, 4]: 9.67 mg/L; Ce bound ([1]; per g additive): 0.59 mg/g; La bound ([1]; per g additive): 0.61 mg/g; Total La/Ce bound ([1]; per g additive): 1.20 mg/g; % Ce reduction [1, 5]: 11%; % La reduction [1, 6]: 11%; Also binds P [2, 7]: YES; Also binds P ([2]; approximately 1 ppm P added to remaining sample, blue = dissolved P remains, listed as glutamine): did display a preservation of P-binding capability
[O]=[Mg] [Magnesium oxide, magnesium oxide]			0.0662	5.36	5.34	10.71	still binding P and YES	
O.O=C([O-])C(=O)[O-].[K+].[K+] [Potassium oxalate (monohydrate), potassium oxalate (monohydrate)]			1.99	4.45	4.55	9.00		
C=CC(=O)[O-].[Na+] [Sodium acrylate, sodium acrylate]	−28	−14	13.9	-1.42	-0.68	-2.10	did display a preservation of P-binding capability and YES	
O=C([O-])CC(O)(CC(=O)[O-])C(=O)[O-].[Na+].[Na+].[Na+] [Sodium citrate, sodium citrate]	20	20	8.67	1.10	1.12	2.21	did display a preservation of P-binding capability and YES	
[Na+].[OH-] [Sodium hydroxide, sodium hydroxide]			0.106	4.98	4.94	9.91		
O=[Si]([O-])[O-].[Na+].[Na+] [Sodium metasilicate (anhydrous), sodium metasilicate (anhydrous)]								Ce [1, 4]: 3.39 mg/L; Ce bound ([1]; per g additive): 3.62 mg/g; La bound ([1]; per g additive): 3.86 mg/g; Total La/Ce bound ([1]; per g additive): 7.48 mg/g; % Ce reduction [1, 5]: 69%; % Ce reduction ([1]; reduction in dissolved Ce vs control, listed as sodium metasilicate (anhydrous)): approximately 69%; % La reduction [1, 6]: 73%; % La reduction ([1]; reduction in dissolved La vs control, listed as sodium metasilicate (anhydrous)): approximately 73%; Also binds P [2, 7]: did not display a preservation of P binding capability
O=C([O-])C(O)C(O)C(=O)[O-].[Na+].[Na+] (centres unmarked) [Sodium tartrate, sodium tartrate]	18	18	8.89	0.98	1.01	2.00	did display a preservation of P-binding capability and YES	

Read-outs that look alike come from different tables or passages of the source. Some entries repeat one wording, which the source may state once for all of them.
